Test results as given in PubChem BioAssay AID624297 (National Center for Advancing Translational Sciences (NCATS), 2012).
Out of some 340,000 compounds screened, about 6,200 (1.8%) were called active. The shares of active, inactive and inconclusive entries below differ from those in the screen. Calls follow the shape of the dose curve; as a rule, active = well fitted activation curve with a large enough effect; inconclusive = small, poorly fitted or top-dose-only effect; inactive = no such curve, though single readings can be large or run the other way. A potency beside an inconclusive call is a rough fit, not a confirmed value.

Assay: A quantitative high throughput screen for small molecules that induce DNA re-replication in SW480 colon adenocarcinoma cells. Also: nearly all actives have a fitted effect of over 55% in size.
Conditions: Hoechst DNA content imaging, 48 h; series mostly up to 46.1 µM
Outline: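 SW480 cells exposed to compounds for 48 hr at 37 C, 5% CO2, then Hoechst-stained 40 min. Nuclear DNA content imaged by fluorescence scanning (405 nm excitation, 500-530 nm emission); re-replication scored as increased high-intensity nuclei.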
Potency is read from the fitted curve at half-maximal effect.

| SMILES | Potency |
| --- | --- |
| CC(C)(C)c1cc(C(=O)NC2CC2)n(Cc2ccc(F)cc2)n1 | inconclusive: 16.4 µM [activator, partial curve, poor fit] |
| C=CCNC(=O)c1c(N)n(-c2cccc(S(N)(=O)=O)c2)c2nc3ccccc3nc12 | active: 4.11 µM |
| CCn1cc(/C=C(\NC(=O)c2ccccc2OC)C(=O)NCCCN2CCOCC2)c2ccccc21 | inconclusive: 6.51 µM [activator, single point] |
| Cc1c(Cl)cccc1NC(=S)NCCc1ccc(F)cc1 | inactive |
| O=C(Nc1nc2ccccc2[nH]1)c1ccc(Cl)c(S(=O)(=O)N2CCCC2)c1 | inconclusive: 20.6 µM [activator, single point] |
| Cc1nc2ccc(S(=O)(=O)N(C)CC(=O)NCc3ccc(N(C)C)cc3)cc2s1 | inconclusive: 3.26 µM [activator, single point] |
| COc1ccccc1Oc1ccc(NC(=O)c2ccc(Cl)cc2)cc1 | inconclusive: 18.4 µM [activator, single point] |
| O=C(CSC(=S)N1CCCC1)c1cc(Br)cc(Br)c1O | active: 5.17 µM |
| Cc1ccc(CNC(=O)C2CC(c3cc(C(F)(F)F)cc(C(F)(F)F)c3)=NO2)o1 (stereo not given) | inconclusive: 6.51 µM [activator, single point] |
| COc1ccc(C(=O)n2nc(-c3ccco3)nc2SC)cc1OC | inactive |
| COC(=O)COc1ccc2occ(C(C)=O)c2c1 | active: 16.4 µM |
| Cc1ccccc1Cn1c(=O)n(Cc2ccco2)c(=O)c2ccccc21 | inconclusive: 11.6 µM [activator, partial curve, poor fit] |
| CC1(C)C2CC=C(/C=N/NC(=S)NCCc3ccccc3)C1C2 (stereo not given) | inactive |
| CC1Cc2ccccc2N1C(=O)C1CCN(S(=O)(=O)c2cccs2)CC1 (stereo not given) | inconclusive: 29.1 µM [activator, single point] |
| O=C1c2c(O)cc(O)cc2O[C@H](c2ccc(O)c(O)c2)[C@H]1O | inconclusive: 0.631 µM [activator, partial curve, poor fit] |
| COc1ccc(Cc2nnc(NC(C)=O)s2)cc1 | inactive |
| CC(C)Cn1c(N)c(C(=O)COC(=O)c2ccncc2)c(=O)n(C)c1=O | inactive |
| COc1ccccc1N/C(N)=N/c1nc(C)cc(C)n1 | inactive |
| CCn1cc(C(=S)N2CCC(C(N)=O)CC2)c2ccccc21 | inconclusive: 0.13 µM [activator, single point] |
| O=c1ccc(-c2ccccc2)nn1Cc1ccc(F)cc1Cl | inconclusive: 6.51 µM [activator, partial curve, poor fit] |

A second format for part of the listing above.
SMILES | Potency
CC(C)(C)c1cc(C(=O)NC2CC2)n(Cc2ccc(F)cc2)n1 | inconclusive: 16.4 µM [activator, partial curve, poor fit]
Cc1ccccc1Cn1c(=O)n(Cc2ccco2)c(=O)c2ccccc21 | inconclusive: 11.6 µM [activator, partial curve, poor fit]
